In the supplement of paper PMC3334620:
Over roughly 33,000 sequences, “E-score (-0.5 to 0.5)” has its median near -0.0014; the highest 2% begin near 0.25. The list shows a part of the results.

Target: T1, Cad1 (UniProt P24813)
T1 sequence: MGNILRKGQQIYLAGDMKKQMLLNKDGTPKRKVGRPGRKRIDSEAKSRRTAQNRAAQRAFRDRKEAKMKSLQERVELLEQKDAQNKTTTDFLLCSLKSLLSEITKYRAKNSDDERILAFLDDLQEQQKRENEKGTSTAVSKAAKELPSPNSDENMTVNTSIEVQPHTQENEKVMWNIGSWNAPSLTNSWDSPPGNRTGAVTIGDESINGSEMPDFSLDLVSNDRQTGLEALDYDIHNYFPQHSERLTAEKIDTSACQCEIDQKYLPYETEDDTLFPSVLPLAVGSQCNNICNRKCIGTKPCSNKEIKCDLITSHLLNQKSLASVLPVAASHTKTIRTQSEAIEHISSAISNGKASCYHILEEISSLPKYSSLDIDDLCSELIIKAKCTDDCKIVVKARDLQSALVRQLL
Experiment: PBM E-score (8-mer binding enrichment) (E-score (-0.5 to 0.5)); higher = stronger / more preferred TF binding
Conditions: protein concentration: 100 nM; construct: GST-full length
Procedure, shortened: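 Using PURExpress in vitro transcription/translation, GST-tagged yeast transcription factors were made in full-length or DNA-binding-domain form. These were applied at about 100-200 nM to double-stranded universal all-10-mer Agilent arrays, and bound protein was detected with fluorescent anti-GST. Scans were normalised with masliner before the Universal PBM Analysis Suite assigned E-scores to ungapped eight-base words pooled with their reverse complements.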

| Sequence | PBM E-score |
| --- | --- |
| ACGGTCGC | -0.0822 |
| AATGTGAT | 0.127 |
| GTCATGAA | 0.0483 |
| AAGATCGA | 0.144 |
| CTCGTCCA | 0.072 |
| ATGTCGAC | 0.276 |
| GCCTCGCC | -0.183 |
| AAATGAGG | -0.0935 |
| ACCTTTAA | -0.0262 |
| GTATATAC | -0.0771 |
| AAACTCCG | 0.174 |
| CATTAAGC | 0.0681 |
| CTGTCATC | 0.135 |
| TCGACGCA | 0.0318 |
| GTAGTCAA | 0.0209 |
| AAGTATGA | -0.00011 |
| AAGTGTTC | 0.16 |
| CGGGAACC | -0.101 |
| GTGTAACA | -0.0208 |
| TCGTAAGA | -0.109 |
| AAGAGAAT | 0.0911 |
| ATTGCTAC | 0.0731 |
| CCGAACAC | 0.103 |
| ACAAGGTA | 0.0279 |
| AGTTAAAA | 0.14 |

Individual results from the entries so far.
PBM E-score, ACGGTCGC is entered as -0.0822
PBM E-score, AAATGAGG is entered as -0.0935
PBM E-score, AAGAGAAT is entered as 0.0911

Next results follow.

| Sequence | PBM E-score |
| --- | --- |
| GCCCCTAC | -0.135 |
| GGATAGCC | 0.0232 |
| AATAGCGC | 0.269 |
| CTCCAGCA | -0.186 |
| ATGACCAA | 0.142 |
| CTCTGAGC | -0.0187 |
| AAAGGACC | -0.287 |
| AACACTCG | 0.16 |
| GGTCCACA | -0.144 |
| CTACTGGC | -0.187 |
| CTGGCCCC | -0.192 |
| ACGACACG | 0.133 |
| GTAACCCA | 0.0628 |
| AGACTTAG | -0.119 |
| TATCCCAA | -0.0435 |
| ACGTTACG | 0.094 |
| TACATTGA | 0.0651 |
| TATGAGGA | -0.0778 |
| AGTTCGGC | -0.117 |
| ACTAAGAA | 0.0946 |
| AGGAACAA | 0.00382 |
| ACGCTTAC | 0.126 |
| ACGAGTCC | -0.109 |
| GGCCATAC | 0.0542 |
| GGACCAAA | 0.0062 |

| Sequence | PBM E-score |
| --- | --- |
| CCCACTCA | -0.193 |
| CATCGTAG | -0.127 |
| CCTAGTTA | 0.0353 |
| AGGTATCA | -0.164 |
| ATCTATCC | 0.0363 |
| CATATCAC | 0.0366 |
| ATTGTAGC | 0.00903 |
| AAACCCCG | -0.0769 |
| GATTACTA | 0.392 |
| CCGTACTA | 0.0809 |
| ACGAGCAT | -0.149 |
| GCGGGCTA | 0.0128 |
| CCAGGGTA | -0.117 |
| CACTAGCG | 0.0044 |
| ATTCTCGG | 0.0797 |
| CTTTGGAC | 0.109 |
| CAAGCCTA | 0.0806 |
| AGCTTTCG | -0.122 |
| CAAGGTCC | -0.123 |
| TCCCGAGA | -0.0956 |
| GCACAAGA | 0.0781 |
| GTCACCAC | -0.0683 |
| ACCAACGA | 0.152 |
| CCGCATGA | 0.00982 |
| CCCCGTCC | -0.319 |

| Sequence | PBM E-score |
| --- | --- |
| AAGCCGCG | 0.182 |
| CAGCCAGG | 0.0503 |
| ACGCCATA | 0.101 |
| CCTCTAGC | -0.269 |
| CATGACAA | 0.165 |
| GAGAATAC | 0.0981 |
| CTAGGCCA | -0.163 |
| TCTTGAAA | 0.187 |
| CTTTGTAC | 0.0743 |
| ATACCCAT | 0.00593 |
| AACACGTG | 0.217 |
| GGTCTTAA | -0.144 |
| ACTGCCAG | -0.0252 |
| TGACTTAA | 0.0533 |
| ACACAAGC | 0.0103 |
| CATCCTAA | 0.0267 |
| CGAATCCC | 0.0511 |
| ACACTACT | 0.108 |
| AAATTCAA | -0.0271 |
| CTGAGGAA | -0.165 |
| GGTCTTGA | -0.00848 |
| CTGCTATC | 0.13 |
| AGGGTTAA | -0.174 |
| AAAGCCAG | 0.0283 |
| AATTCGGG | 0.0637 |

| Sequence | PBM E-score |
| --- | --- |
| ACAACCCG | -0.0537 |
| GGCCGCTA | -0.0531 |
| AAAACGCA | 0.0109 |
| ACAGAATG | 0.0502 |
| ACATTTGC | 0.0359 |
| AGCAAGTA | -0.0572 |
| ACCTGATG | -0.134 |
| ATAGTATC | 0.119 |
| AATGGACC | 0.216 |
| CCGGTATC | -0.147 |
| AACGCAGG | -0.194 |
| CGTTGGAC | -0.137 |
| AAAGAAGA | -0.205 |
| ACGGTGGC | -0.0654 |
| ACGATGAA | 0.0286 |
| CAAATGGC | -0.054 |
| ACCCGGTG | -0.123 |
| ATTGTCCC | -0.0923 |
| GATAACCC | 0.0135 |
| CGACGAAA | 0.105 |
| CGGTCTGC | -0.0877 |
| AATTCCAT | 0.0643 |
| GACTTGGA | -0.045 |
| AGATGCGG | -0.00438 |
| GGCCAAAA | 0.0248 |

An excerpt of these results, with tabs:
Sequence	PBM E-score
CGTTGGAC	-0.137
AAAGAAGA	-0.205
ACGGTGGC	-0.0654
ACGATGAA	0.0286

(next part)

| Sequence | PBM E-score |
| --- | --- |
| CATAACAC | 0.0209 |
| CACCATAG | -0.173 |
| CCAACCTA | 0.00527 |
| CAGCTGCG | -0.0342 |
| CATGCAAA | 0.103 |
| CATCTCAG | 0.0222 |
| ACGACACC | -0.0498 |
| AGCACTCA | -0.1 |
| CATCATCA | -0.0576 |
| GACATTTA | -0.0115 |
| AAGGGCGG | -0.0106 |
| CGTACACG | 0.0454 |
| ACCGTAGA | 0.0783 |
| ACGCGGAA | 0.125 |
| AACCACCG | -0.104 |
| CTATCGAA | -0.107 |
| GTACTTCA | 0.251 |
| ACGCTCCG | -0.145 |
| GATCTTAA | 0.073 |
| AGGCTTCG | -0.219 |
| GCACGCGC | 0.0412 |
| ACGAGATC | 0.0341 |
| AGACTGAC | -0.0725 |
| CTTGCCTA | -0.0629 |
| ACTGGGCT | -0.115 |

| Sequence | PBM E-score |
| --- | --- |
| AGTAATTG | 0.0751 |
| GTTAAGGA | 0.0277 |
| CACCGGCA | 0.123 |
| CTGCGTCA | -0.0938 |
| AGTTCGTC | 0.121 |
| ATTGCCTA | -0.0501 |
| CGCGTCCC | -0.0487 |
| ATGTATAG | 0.102 |
| CGAGGCGA | 0.0962 |
| AGCCCTCC | -0.205 |
| AATACACG | -0.00975 |
| AGGCGGAC | -0.118 |
| AGTTACGA | 0.138 |
| CGACATGC | 0.0522 |
| AACTTTAG | -0.057 |
| CTCTCTTC | -0.215 |
| AAGCTCAA | -0.141 |
| GCTGAAGC | 0.0577 |
| GATATTAA | 0.187 |
| AGCGAGCG | 0.0867 |
| GATCTTAC | -0.0736 |
| CTTCAAGA | 0.0733 |
